# From patent US20130203649A1, “INHIBITORS OF TLR SIGNALING BY TARGETING TIR DOMAIN INTERFACES” (UNIVERSITY OF MARYLAND, BALTIMORE, priority 2012, published 2013)
# “Also recorded” adds a separate entry of the source. At least one peptide structure holds a part that was inferred or is arguable (an end, a ring closure or a residue). No end group written: not given here.
# Legend:
# TLR4/TRAM = biological target: T1, TLR4/TRAM (Mus musculus, UniProt Q9QUK6); experiment: TLR4/TRAM coimmunoprecipitation in transfected HEK293T cells; type: cell-based; settings: 20 μM peptide, 1 h
# T1 construct: TLR4-Cer expression vector was described earlier (1); expressed in transfected cells; host or cells: HEK293T
# T1 sequence (Q9QUK6 26-835): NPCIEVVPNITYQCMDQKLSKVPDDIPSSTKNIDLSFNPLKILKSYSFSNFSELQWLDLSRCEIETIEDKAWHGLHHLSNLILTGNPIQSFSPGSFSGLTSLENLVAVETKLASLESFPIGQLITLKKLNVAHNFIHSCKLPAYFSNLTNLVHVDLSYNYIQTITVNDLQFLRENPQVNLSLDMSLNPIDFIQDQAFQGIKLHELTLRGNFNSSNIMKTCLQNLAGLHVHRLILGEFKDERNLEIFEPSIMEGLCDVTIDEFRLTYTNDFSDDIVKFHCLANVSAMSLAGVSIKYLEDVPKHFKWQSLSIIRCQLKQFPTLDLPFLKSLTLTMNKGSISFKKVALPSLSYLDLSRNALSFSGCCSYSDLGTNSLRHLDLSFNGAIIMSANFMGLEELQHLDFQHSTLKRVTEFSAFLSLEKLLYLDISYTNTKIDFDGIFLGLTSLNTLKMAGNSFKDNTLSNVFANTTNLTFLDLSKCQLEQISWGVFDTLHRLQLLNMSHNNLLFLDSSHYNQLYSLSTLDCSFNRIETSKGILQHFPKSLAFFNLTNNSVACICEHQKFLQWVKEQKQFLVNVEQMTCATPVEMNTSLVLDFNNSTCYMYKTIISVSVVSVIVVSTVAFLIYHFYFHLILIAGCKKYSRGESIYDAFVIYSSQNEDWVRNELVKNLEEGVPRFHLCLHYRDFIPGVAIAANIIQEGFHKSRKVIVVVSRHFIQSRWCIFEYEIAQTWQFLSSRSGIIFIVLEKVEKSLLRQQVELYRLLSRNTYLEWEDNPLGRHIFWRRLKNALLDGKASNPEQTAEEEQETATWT
# Description: FIG. 9. TM4, TM6, and TR6 block adapter recruitment to TLR4. (A) A total of 6×10^5 HEK293T cells was transfected with 1 μg pcDNA3.1-mTLR4-Cer and pEF-BOS-mTRAM-HA. Twenty-four hours posttransfection, the cells were treated with 20 μM of each peptide for 1 h. Cell lysates were immunoprecipitated with anti-GFP Ab and blotted with anti-HA-HRP. (B) A total of 2×10^6 mouse peritoneal macrophages was pretreated with 20 μM of each peptide for 30 min prior to stimulation with 100 ng/ml LPS. Cell extracts were obtained 30 min after LPS treatment, immunoprecipitated with goat anti-TLR4 Ab, and blotted with rabbit anti-MyD88 or anti-TLR4 Ab. Data are representative of three independent experiments.
# HEK293T cells were transfected with indicated plasmids using Superfect Transfection Reagent (Qiagen). […] Protein was quantified using Bio-Rad protein quantification kit. Equal amount of protein was loaded and analyzed by 10% SDS-PAGE and immunoblotting. The cell extracts containing equal amount of protein were incubated with 1 μg Ab for 2 h, followed by 4-h incubation with 25 μl protein G agarose beads (Roche); the beads were then washed four times with lysis buffer, boiled in […] sample loading buffer, and analyzed by immunoblotting. […]
# TLR9 = biological target: T2, TLR9 (Mus musculus, UniProt Q9EQU3); experiment: ODN 1668-induced cell activation (STAT1-Y701 phosphorylation, IFN-β mRNA) in macrophages; type: cell-based; settings: 20 μM peptide; ODN 1668 2.5 μM
# T2 construct: Macrophages were treated with ODN 1668 at 2.5 μM; endogenous in cells; host or cells: peritoneal macrophages of C57BL/6J mice
# T2 sequence (Q9EQU3 26-1032): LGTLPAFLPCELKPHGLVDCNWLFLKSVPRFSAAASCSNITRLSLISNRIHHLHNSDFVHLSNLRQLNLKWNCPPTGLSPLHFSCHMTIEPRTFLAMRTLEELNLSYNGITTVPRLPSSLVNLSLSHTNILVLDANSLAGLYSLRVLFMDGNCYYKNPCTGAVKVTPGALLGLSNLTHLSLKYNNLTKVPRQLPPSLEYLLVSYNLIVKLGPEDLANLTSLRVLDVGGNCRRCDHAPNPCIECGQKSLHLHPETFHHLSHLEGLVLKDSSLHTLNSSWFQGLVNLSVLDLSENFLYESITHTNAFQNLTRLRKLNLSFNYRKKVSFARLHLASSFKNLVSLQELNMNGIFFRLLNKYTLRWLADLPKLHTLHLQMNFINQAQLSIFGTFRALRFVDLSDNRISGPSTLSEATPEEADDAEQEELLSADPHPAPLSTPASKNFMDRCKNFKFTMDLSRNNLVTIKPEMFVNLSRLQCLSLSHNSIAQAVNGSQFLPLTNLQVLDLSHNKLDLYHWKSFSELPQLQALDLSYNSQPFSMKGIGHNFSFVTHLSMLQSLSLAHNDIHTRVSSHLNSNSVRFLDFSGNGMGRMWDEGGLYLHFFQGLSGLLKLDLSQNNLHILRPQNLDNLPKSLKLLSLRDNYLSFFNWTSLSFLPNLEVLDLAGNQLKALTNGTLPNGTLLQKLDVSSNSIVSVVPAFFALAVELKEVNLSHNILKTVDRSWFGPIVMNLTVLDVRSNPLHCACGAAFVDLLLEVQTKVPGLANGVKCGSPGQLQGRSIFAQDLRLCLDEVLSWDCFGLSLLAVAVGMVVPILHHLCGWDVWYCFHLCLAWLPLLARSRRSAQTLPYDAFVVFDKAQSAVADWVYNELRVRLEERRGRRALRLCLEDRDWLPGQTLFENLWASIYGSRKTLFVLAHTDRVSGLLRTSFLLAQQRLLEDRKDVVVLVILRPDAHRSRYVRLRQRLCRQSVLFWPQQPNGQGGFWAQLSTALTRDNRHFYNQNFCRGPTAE
sequence,measurement,setting,value
RQIKIWFQNRRMKWKKENFLRDTWCNFQFY [TM6],TLR4/TRAM coimmunoprecipitation,TLR4/TRAM,blocked
same,Cell activation induced by TLR9 agonist ODN 1668,TLR9,Neither peptide blocked; also recorded: but not
RQIKIWFQNRRMKWKKIVFAEMPCGRLHLQ [TM4],TLR4/TRAM coimmunoprecipitation,TLR4/TRAM,blocked
same,Cell activation induced by TLR9 agonist ODN 1668,TLR9,Neither peptide blocked; also recorded: but not
